We go through 1 substance from patent publication US12098218 (dated 2024).

The data set can be described thus: general procedure: Fmoc solid-phase peptide synthesis; HBTU/diisopropylethylamine; diisopropylcarbodiimide/1-hydroxybenzotriazole. The conditions noted are these: whole synthesis, HPLC (Agilent UPLC 1290, C8 Zorbax Eclipse plus, 226 nm).

Take Fmoc-4-Aph-Leu-Lys(iPr)-Pro-Ala-NH2: the “crude HPLC purity” value is, setting by setting: (run 1) “purity 53.24%”; (run 2) 65%; (run 3) 67%.
